Each structure is given as a SMILES string. This is one part of the list.

In the assay the test system is T1, CTL2-GFP (C. trachomatis L2/434/Bu, GFP-expressing).
T1 construct: L2/434/Bu, GFP-expressing
More on the design: species or system HeLa; Intracellular C. trachomatis growth in HeLa cells, bulk GFP fluorescence relative to DMSO. The note with it: bulk GFP, single well; 28.5 h, 10 µM; inhibitor.
Turning to `N#Cc1c(N)nc2c(c1-c1ccc(Cl)cc1)CCCCCCCCCC2` [CBK262322], the “% of control remaining” value was 100%.
For `CN(C(=O)c1cc[nH]n1)C1CCN(c2ncnc3ccccc23)CC1` [CBK305916] the value was 121.587%.
On to `COc1ccc(N2CCN(c3nc(NCCO)nc(N4CCOCC4)n3)CC2)cc1` [CBK265413], for which the “% of control remaining” value worked out at 111.193%.
For `COc1ccc(-c2cc(-c3nnc(S)n3-c3ccccc3Cl)[nH]n2)cc1` [CBK265880] the value was 100%; for `O=C(NCc1ccc(Cl)cc1)c1cnc(-c2cccc(C(F)(F)F)c2)c(-c2ccncc2)c1` [CBK037607], 154.324%; for `Cn1cc(CN2C3CCC(C3)[C@@H]2COc2ccc(F)cc2)cn1` (some centres unmarked) [CBK282257], 95.8489%.
Take `CCC1(O)C(C)C(c2ccc(Cl)cc2)NC(c2ccc(Cl)cc2)C1C` (centres unmarked) [CBK025376C]: the “% of control remaining” value turned out to be 79.1492%.
As to `CC(C)C(=O)N1CCCc2cc(C(O)CN3CCCCC3)ccc21` (centres unmarked) [CBK282127], the “% of control remaining” value came out at 151.73%.
In the case of `O=C(CSc1nc(-c2cccs2)cc(C(F)(F)F)n1)N1CCSCC1` [CBK307371], the “% of control remaining” value worked out at 118.58%.
Under `O=S(=O)(Nc1nnc(C(F)(F)F)s1)c1ccc(F)cc1` [CBK026663] stands 96.9426%; under `O=C1CC[C@@H](NCc2ccncc2)[C@H](c2cc(F)cc(F)c2)N1` [CBK283131], 104.698%; under `Cc1cc(NS(=O)(=O)c2ccc(NC(=S)NCC3CCCO3)cc2)no1` (centres unmarked) [CBK268160], 58.4479%.
Under `O=C(O)C1CC=CCC1C(=O)Nc1ccc(S(=O)(=O)N2CCCc3ccccc32)cc1` (centres unmarked) [CBK268179] stands 113.933%; under `CN(C)S(=O)(=O)c1cc(C(=O)Nc2ccc(O)cc2)c(Cl)cc1Cl` [CBK266767], 114.876%; under `O=C(CNC(=O)c1ccccc1C(=O)O)Nc1ccccc1` [CBK286690], 111.907%.
For `CN(C)c1ccc(C(=O)N2CCC(c3cc4cnccc4[nH]3)CC2)cc1` [CBK283446] the value was 132.953%.
`Cc1ccc(OCc2occc2C(=O)N2CCc3[nH]cnc3C2)cc1` [CBK307717]: the “% of control remaining” value stood at 150.39%.
For the compound `CCCC/C(=N/N=C(\CCCC)c1ccncc1)c1ccncc1` [CBK016521], the “% of control remaining” value is 94.2791%.
As to `COc1ccc(/C=C(\C)C(=O)Nc2cccc(N3CCNCC3)c2)cc1OC` [CBK034115T], the “% of control remaining” value worked out at 100%.
Under `Cc1ccc(C)c2c(C)c(C(=O)N3CCC(O)C(C)C3)[nH]c12` (centres unmarked) [CBK282527] stands 118.274%.
Under `O=C(OCCC1SC(NC2CC3C=CC2C3)=NC1=O)c1ccc(Cl)c(Cl)c1` (centres unmarked) [CBK200056T] stands 103.807%.
For `O=S(=O)(NC1CCN(Cc2ccccc2)CC1)c1cccc2nonc12` [CBK062030] the value was 92.8587%.
As to `NC(=O)c1ccc(-c2nccnc2NCc2ccc3c(c2)OCO3)cc1` [CBK036696], the “% of control remaining” value stood at 218.266%.
Under `O=C(CCN1CCc2ccccc2C1)Nc1cccc(F)c1` [CBK264282] stands 109.599%; under `Cc1ccc2c(c1)C(NC(=O)N(C)C1CCS(=O)(=O)CC1)CC(C)(C)O2` (centres unmarked) [CBK307654], 132.597%.
Under `Cn1cc(C(=O)N2CCOCC2c2nc(-c3cccs3)no2)cn1` (centres unmarked) [CBK305422] stands 116.023%; under `COc1cc(-c2cnc(N)c(N[C@H](CO)C(C)C)n2)cc(OC)c1OC` [CBK063765], 123.852%; under `CN(c1ncc(Br)cc1C(=O)Nc1ccc(C(F)(F)F)cc1)S(C)(=O)=O` [CBK076542], 100%.
For `CSc1nc(NC(=O)CCCc2ccccc2)cc(N2CCNCC2)n1` [CBK050258T], the “% of control remaining” value was 56.4184%.
For `CCn1cc(NC(=O)C(CC)(CC)CN)ccc1=O` [CBK304320C] the value was 128.441%.
As for `CS(=O)(=O)c1ccc(-c2nccnc2N2CCN(c3ccncc3)CC2)cc1` [CBK036924], the “% of control remaining” value was 230.974%.
Under `O=C(O)CCN1CCN(S(=O)(=O)c2ccc3ccccc3c2)CC1` [CBK269255] stands 153.322%; under `COc1ccccc1N1CCN(C(=O)NCc2cnc(C)cn2)CC1` [CBK155367], 124.843%.
Consider `O=S(=O)(N1CCCCCC1)n1ccnc1` [CBK269241], for which the “% of control remaining” value was 128.057%.
`CC(C)(CO)CCCn1cncc1-c1cnn(C2CCCCC2)c1` [CBK281779]: the “% of control remaining” value stood at 124.877%.
For `CCC(=O)N(C)[C@H]1CC[C@]2(CC1)CNC(=O)c1ccccc1O2` [CBK281683] the value was 110.864%; for `Cc1cc(NS(=O)(=O)c2cccc(Cl)c2C)on1` [CBK022499], 113.256%; for `COc1ccc([C@@]23CC[C@@H](NC(=O)c4cc(F)c(Cl)cc4Cl)C[C@@H]2N(C)CC3)cc1OC` [CBK074264T], 50.894%.
Under `COc1cc(CN2C[C@@H](c3ccccc3)[C@@H]3NC(=O)CCCC[C@H]32)cc(OC)c1` [CBK285646] stands 114.21%.
For `O=C(NCCNc1c(Cl)cccc1[N+](=O)[O-])c1cccc(Br)c1` [CBK263940] the value was 104.752%; for `CCN(Cc1ccc(C#N)cc1F)C(=O)Nc1cnn(CCOC)c1` [CBK305697], 124.682%; for `CCOC(=O)Cn1nc(-c2nonc2N)nc1-c1nonc1N` [CBK265482], 129.173%.
In the case of `COc1ccc(C(=O)N(Cc2ccco2)Cc2cc3ccccc3nc2O)cc1` [CBK269594], the “% of control remaining” value is 81.8404%.
Under `COc1cc2c(cc1OC)C(C)N(C(=O)Nc1ccc3c(c1)OCCO3)CC2` (centres unmarked) [CBK086204] stands 136.597%; under `CN1CCN(c2ccc(C(=O)O)cc2)CC1` [CBK264773], 119.326%; under `CC(C)C(=O)N[C@@H](C)Cn1c(C(F)(F)F)cc2cccnc21` [CBK283231], 112.861%.
For `Cc1nc2n(CCN3CCCCC3)c3ccccc3n2c1C(=O)c1cccs1` [CBK278242B] the value was 118.26%.
On to `COC(=O)Nc1ccc(S(=O)(=O)N2CCCC(C(=O)Nc3ccc4c(c3)OCO4)C2)cc1` (centres unmarked) [CBK265361], for which the “% of control remaining” value was determined as 117.479%.
Under `CC(=O)C1=C(O)C(=O)N(CC(=O)O)C1c1cccc([N+](=O)[O-])c1` (centres unmarked) [CBK262921] stands 116.236%.
For `CC(CCc1ccccc1)N1CCN(S(=O)(=O)c2ccc3ccccc3c2)CC1` (centres unmarked) [CBK264240], the “% of control remaining” value turned out to be 96.9536%.
As to `CCc1nn(Cc2ccccn2)c(=O)c2cc3sccc3n12` [CBK284074], the “% of control remaining” value is given as 172.372%.
For `CC(C)(C)OC(=O)NCc1ccc(CNCc2ccccc2C(F)(F)F)cc1` [CBK056703] the value was 120.284%.
Under `c1ccc(N2CCC(CNCc3c[nH]nc3-c3cccnc3)C2)cc1` (centres unmarked) [CBK305738] stands 141.671%.
For `O=C(NC(=S)Nc1ccc(S(=O)(=O)Nc2nccs2)cc1)C12CC3CC(CC(C3)C1)C2` [CBK261067] the value was 89.2666%; for `Cc1c(C(=O)O)sc(S(=O)(=O)N2CCN(C(=O)CC3CCCC3)CC2)c1C(=O)O` [CBK297122], 114.877%.
On to `CCn1c(C)cc2cc(NS(=O)(=O)c3ccc4[nH]c(=O)[nH]c(=O)c4c3)ccc21` [CBK286363], for which the “% of control remaining” value is 109.624%.
Regarding `COc1cc(C)c(Nc2cc(-c3cccnc3)ncn2)cc1OC` [CBK037754], the “% of control remaining” value came out at 92.7414%.
For the compound `OC1CCCn2c1nc1cc(Cl)ccc12` (centres unmarked) [CBK113625], the “% of control remaining” value is given as 103.834%.
Under `CC1(C)CC(=O)C(=CNCCCn2ccnc2)C(=O)C1` [CBK261686] stands 121.693%; under `FC(F)(F)c1ccc(OCc2ccc(-c3ccccc3)cc2)nc1` [CBK115830], 152.175%; under `O=C1CCC(=O)N1CCOc1nccnc1N1CCN(CCc2ccccc2)CC1` [CBK084302], 123.926%.
For the compound `O=C(c1cnc2ccccc2n1)N1CCN(CCc2ccccc2)CC1` [CBK200214], the “% of control remaining” value worked out at 95.5868%.
For `COCCC(=O)NCc1ccccc1OC1CCNC1` (centres unmarked) [CBK024504T] the value was 113.87%; for `Nc1cccc(Oc2ccc(C(c3ccc(Oc4cccc(N)c4)cc3)(C(F)(F)F)C(F)(F)F)cc2)c1` [CBK261645], 91.5586%.
Under `COc1ncccc1CNc1ncnc2c1cnn2CCO` [CBK305980] stands 136.653%; under `Cc1cc(Cl)c(S(=O)(=O)N2CCN(c3ccc(F)cc3)CC2)cc1OCC(N)=O` [CBK266439], 152.116%.
Take `CCN(CCc1nc2cc(OC)ccc2[nH]1)C(=O)c1cc(C#N)cn1C` [CBK306658]: the “% of control remaining” value was 96.2552%.
For `N#Cc1c(NC(=O)CCn2cnnn2)sc2c1CCC2` [CBK270041] the value was 122.56%; for `CCOC(=O)CSc1nc2cc(Cl)c(Cl)cc2nc1NC(C)C` [CBK107173], 101.458%; for `CN1C[C@@H](NC(=O)COc2ccccc2)C[C@H]1c1nc(-c2ccncc2)no1` [CBK288855], 139.991%.
For `Cc1ccccc1C(=O)NC(NC(=S)Nc1sc2c(c1C(N)=O)CCCC2)C(Cl)(Cl)Cl` (centres unmarked) [CBK261047] the value was 69.5206%; for `O=S1(=O)C=C(c2ccc(Cl)cc2)S(=O)(=O)CC1` [CBK018403], 123.364%; for `COC(=O)c1sccc1S(=O)(=O)N1CCN(c2ncnc3scc(C)c23)CC1` [CBK023600], 71.8985%.
Regarding `O=C(NC1CCN(CC2(c3ccccc3)CC2)CC1)c1ccco1` [CBK285321], the “% of control remaining” value is recorded as 159.523%.
For `COc1cc(C2CC(=O)Nc3nc(N)[nH]c(=O)c32)ccc1OCc1ccc(F)cc1` (centres unmarked) [CBK293980] the value was 153.257%.
For `O=C(Cc1csc(-c2ccc(Cl)cc2)n1)N1CCN(c2ccccn2)CC1` [CBK107310] the value was 87.8357%; for `COc1cccc(CNC(=O)C2CCN(c3nc4c(-c5cccc(C)c5)csc4c(=O)[nH]3)CC2)c1` [CBK215603], 161.38%.

The values are drawn from paper PMC12040169 (PLOS Biology, 2025).
